The other results are listed elsewhere or left out. Further columns of the screen follow, without active or inactive calls. Most of these compounds were active or inconclusive in the main read-out, so they are no random draw. Words in brackets tell the shape of the fitted curve; partial curves, single points and poor fits give uncertain potencies.
Experiment: qHTS Assay for Lipid Storage Modulators in Drosophila S3 Cells;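 on cell number change: cells counted by Cell Tracker Red CMTPX staining in the red channel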
Conditions: BODIPY lipid droplet fluorescence, 18-24 h; for cell number change: measured here: cell count max response, cells fed with added oleic acid
How it was run: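 Drosophila S3 cells got compounds at several concentrations plus oleic acid (400 uM solution). Laser-scanning cytometry with 488 nm excitation read lipid droplets at 500-530 nm and cells at 575-640 nm. Percent activity was relative to 20 uM Triacsin C.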

[1] = measured here: lipid fluorescence (Fed channel) AC50, cells fed with added oleic acid
[2] = measured here: cell number channel AC50, cells fed with added oleic acid

Structure (SMILES) | AC50 [1] | cell number change [%] | AC50 [2]
CC(C)(C)Nc1nc(N2CCCC2)nc(N2CCCC2)n1 | 0.00461 µM [falling, full curve, poor fit] |  | 
CC(CNCC1CCCO1)COc1ccccc1 (stereo not drawn) | 25.9 µM [falling, partial curve] | -16 | 
O=C(c1ccccc1-c1nc(-c2ccc(Cl)cc2)no1)N1CCCC1 | 0.206 µM [rising, full curve] | 43.8 | 2.31 µM [rising, partial curve]
CCc1ccc(C(=O)/C=C/c2ccc([N+](=O)[O-])o2)cc1 | 20.6 µM [falling, partial curve] |  | 
COc1ccc(C2CC(c3ccccc3)n3nc(NC(=O)c4cccs4)nc3N2)cc1 (stereo not drawn) | 29.1 µM [falling, single point] | -13.7 | 
Cc1ccc(NS(=O)(=O)c2cccc(C(=O)NCC3(N(C)C)CCCCC3)c2)cc1 | 20.6 µM [falling, single point] | -22.7 | 
Cc1ccc(NC(=O)C2COc3ccccc3O2)cc1C (stereo not drawn) |  | -9.97 | 
CCCOc1ccc(C(=O)C(CCC(CNCC)C(=O)c2ccc(OCCC)cc2)CNCC)cc1 (stereo not drawn) | 1.64 µM [falling, partial curve] | -45.4 | 13 µM [falling, partial curve]
CC1(C)Oc2ccc3ccc(=O)oc3c2/C(=C/Nc2cccc(O)c2)C1=O | 16.4 µM [falling, single point] | -28.3 | 
COc1ccc(OCc2nnc(SCC(=O)NC3CCCCC3)o2)cc1 | 4.61 µM [rising, partial curve] | -12.4 | 
COCCN(CC1CCCN(C2Cc3ccccc3C2)C1)C(=O)c1cccs1 (stereo not drawn) | 29.1 µM [rising, single point] |  | 
S=C(NCc1ccc(Cl)cc1)Nc1ccncc1 |  | -38.1 | 
COc1ccc(CN(C)C(=O)c2ccccc2OCc2c(C)noc2C)cc1OC | 6.51 µM [falling, single point] | 8.15 | 
COCCNC(=O)c1ccc2c(=O)n(Cc3ccco3)c(SCC(=O)NC3CCCCC3)nc2c1 | 1.46 µM [rising, partial curve] | 16.7 | 0.366 µM [rising, full curve, poor fit]
COc1cccc(C(=O)Nc2nc(C)cs2)c1 |  | 8.52 | 
Cc1ccc(Sc2ncccc2C(=O)NCC(c2ccc(F)cc2)N2CCOCC2)cc1C (stereo not drawn) |  | 76.1 | 7.31 µM [rising, partial curve]
O=C(O)c1cccnc1SC1CC(=O)N(c2cccc(C(F)(F)F)c2)C1=O (stereo not drawn) |  |  | 4.11 µM [falling, single point]
Cn1ccnc1C(O)(c1nnc(-c2ccccc2)o1)C(F)(F)F (stereo not drawn) | 25.9 µM [rising, single point] | 151 | 29.1 µM [rising, single point]
O=C(O)c1ccc(NC(CSCc2cccc(F)c2)C(=O)O)c([N+](=O)[O-])c1 (stereo not drawn) | 16.4 µM [falling, partial curve] | -5.82 | 
Cc1sc2nc(C)n(/N=C/c3ccccc3)c(=O)c2c1C | 0.651 µM [rising, full curve, poor fit] | -2.45 | 
Cc1ccc(N/C=C/C(=O)c2sc(-c3ccccc3)nc2C)cc1 | 0.291 µM [falling, partial curve, poor fit] | 19.5 | 
Cc1cc(Nc2ccccc2)c2c([N+](=O)[O-])cc(C)c(C)c2n1 | 29.1 µM [falling, single point] | -142 | 29.1 µM [falling, single point]
COc1cccc(NC(=O)CN2C(=O)CSc3ccc(S(=O)(=O)N4CCOCC4)cc32)c1 | 29.1 µM [rising, single point] |  | 
COc1ccccc1C1(CC(=O)N2CCCCC2)CCOC(C(C)C)C1 (stereo not drawn) |  | 43.6 | 14.6 µM [rising, single point]
CCOC(=O)c1c(NC(=O)COC)sc(C)c1C | 23.1 µM [falling, single point] | -26.1 | 
COCC(=O)NC(C)c1nc2ccccc2[nH]1 (stereo not drawn) | 18.4 µM [falling, partial curve] | -189 | 25.9 µM [falling, partial curve]
CCCC(c1nnnn1Cc1ccc(OC)cc1)N1CCC(C(N)=O)CC1 (stereo not drawn) | 6.51 µM [falling, single point] | 2.63 | 
O=C(COC(=O)C1C2CC3OC(=O)C1C3C2)Nc1ccc(F)cc1 (stereo not drawn) | 6.51 µM [falling, single point] | 9.4 | 
COc1ccc(N2CCN(/C(=N\S(=O)(=O)c3ccccc3)Nc3nc(C)cc(C)n3)CC2)cc1 | 3.26 µM [rising, partial curve, poor fit] | 1.76 | 
Oc1ccccc1N1CCN(c2ccc3ccccc3n2)CC1 | 29.1 µM [rising, partial curve, poor fit] | -17.1 | 

2 compounds from above with just cell number change [%] and AC50 [1].
Structure (SMILES) | cell number change [%] | AC50 [1]
CCc1ccc(C(=O)/C=C/c2ccc([N+](=O)[O-])o2)cc1 |  | 20.6 µM [falling, partial curve]
COc1ccc(C2CC(c3ccccc3)n3nc(NC(=O)c4cccs4)nc3N2)cc1 (stereo not drawn) | -13.7 | 29.1 µM [falling, single point]

Source: PubChem BioAssay AID2685 (National Center for Advancing Translational Sciences (NCATS), 2010)
